Earlier results in patent US20190000795A1, “Methods of using cannabinoids and/or molecular similars for modulating, waking-up and/or disabling cellular functions involved in causing disease -- reinvigorating metabolism with anandamide, 2-arachidonoylglycerol and similarly acting compounds” (priority 2017, published 2019).
Some entries share one result that the patent states for a list of compounds.

Columns and labels:
[1] = system: Complex 1; conditions: at >20-40 μM
[2] = system: Complex 2/3

Row | Structure (SMILES) | loss of Complex 1 activity [1] | threshold of rapid decrease (Complex 2/3 inhibition) [2]
1 | CCCCCc1cc(O)c2c(c1)OC(C)(C)[C@@H]1CCC(C)=C[C@@H]21 [THC, delta-9 tetrahydrocannabinol] | ≥ 75% | –
2 | CCCCCCC(C)(C)c1cc(O)c2c(c1)OC(C)(C)[C@@H]1CC=C(CO)C[C@@H]21 [HU210] | ≥ 75% | 2 to 4 µM
3 | CCCCC/C=C\C/C=C\C/C=C\C/C=C\CCCC(=O)NCCO [AEA, N-arachidonoylethanolamine] | – | 2 to 4 µM
